Laboratory results taken from the supplement of paper PMC8728848.
The list shows a part of the results.

How the values were obtained:
Test in all cases: glycan array binding signal (z-score within array); higher = stronger binding
Conditions in all cases: glycan notation: IUPAC condensed, linker removed
[1] = target: GlcNAc(b1-3)Gal(b1-4)GlcNAc(b1-3)Gal(b1-4)GlcNAc(b1-3)Gal(b1-4)GlcNAc(b1-3)Gal(b1-4)GlcNAc(b1-2)[GlcNAc(b1-3)Gal(b1-4)GlcNAc(b1-3)Gal(b1-4)GlcNAc(b1-3)Gal(b1-4)GlcNAc(b1-3)Gal(b1-4)GlcNAc(b1-6)]Man(a1-6)[GlcNAc(b1-3)Gal(b1-4)GlcNAc(b1-3)Gal(b1-4)GlcNAc(b1-3)Gal(b1-4)GlcNAc(b1-3)Gal(b1-4)GlcNAc(b1-2)Man(a1-3)]Man(b1-4)GlcNAc(b1-4)[Fuc(a1-6)]GlcNAc
Summary of the method: (§1)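 Glycan array data came from 3228 arrays in the Consortium for Functional Glycomics database, and only arrays with an available protein sequence were kept. Glycan names were put into IUPAC-condensed notation, and columns mapping to the same glycan were averaged. The binding signal is a within-array Z-score, averaged across arrays of one protein sequence run at different concentrations or buffers and across linkers. A negative Z-score can be read as non-binding.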

[2] = target: GlcNAc(b1-3)Gal(b1-4)GlcNAc(b1-3)Gal(b1-4)GlcNAc(b1-3)GalNAc
Summary of the method: as §1

[3] = target: GlcNAc(b1-3)Gal(b1-4)GlcNAc(b1-3)GalNAc
Summary of the method: as §1

[4] = target: GlcNAc(b1-3)Gal(b1-4)GlcNAc(b1-3)[GlcNAc(b1-3)Gal(b1-4)GlcNAc(b1-3)]GalNAc
Summary of the method: as §1

[5] = target: GlcNAc(b1-3)Gal(b1-4)GlcNAc(b1-6)[Gal(b1-3)]GalNAc
Summary of the method: as §1

[6] = target: GlcNAc(b1-3)Gal(b1-4)GlcNAc(b1-6)[GlcNAc(b1-3)Gal(b1-3)]GalNAc
Summary of the method: as §1

[7] = target: GlcNAc(b1-3)Gal(b1-4)GlcNAc(b1-6)[GlcNAc(b1-3)]Gal(b1-4)GlcNAc
Summary of the method: as §1

GlcNAc(b1-3)GalNAc = target: GlcNAc(b1-3)GalNAc
Summary of the method: as §1

GlcNAc(b1-3)Man = target: GlcNAc(b1-3)Man
Summary of the method: as §1

[8] = target: GlcNAc(b1-3)[GlcNAc(b1-4)][GlcNAc(b1-6)]GlcNAc
Summary of the method: as §1

[9] = target: GlcNAc(b1-3)[GlcNAc(b1-6)]Gal(b1-4)GlcNAc
Summary of the method: as §1

[10] = target: GlcNAc(b1-3)[GlcNAc(b1-6)]GalNAc
Summary of the method: as §1

[11] = target: GlcNAc(b1-4)Gal(b1-4)GlcNAc
Summary of the method: as §1

GlcNAc(b1-4)GlcNAc = target: GlcNAc(b1-4)GlcNAc
Summary of the method: as §1

[12] = target: GlcNAc(b1-4)GlcNAc(b1-4)GlcNAc
Summary of the method: as §1

[13] = target: GlcNAc(b1-4)GlcNAc(b1-4)GlcNAc(b1-4)GlcNAc(b1-4)GlcNAc
Summary of the method: as §1

[14] = target: GlcNAc(b1-4)GlcNAc(b1-4)GlcNAc(b1-4)GlcNAc(b1-4)GlcNAc(b1-4)GlcNAc
Summary of the method: as §1

[15] = target: GlcNAc(b1-4)[GlcNAc(b1-6)]GalNAc
Summary of the method: as §1

[16] = target: GlcNAc(b1-6)Gal(b1-4)GlcNAc
Summary of the method: as §1

GlcNAc(b1-6)GalNAc = target: GlcNAc(b1-6)GalNAc
Summary of the method: as §1

[17] = target: GlcNAc6S(b1-3)Gal(b1-4)GlcNAc
Summary of the method: as §1

Kdn(a2-3)Gal(b1-3)GalNAc = target: Kdn(a2-3)Gal(b1-3)GalNAc
Summary of the method: as §1

Kdn(a2-3)Gal(b1-3)GlcNAc = target: Kdn(a2-3)Gal(b1-3)GlcNAc
Summary of the method: as §1

Kdn(a2-3)Gal(b1-4)Glc = target: Kdn(a2-3)Gal(b1-4)Glc
Summary of the method: as §1

Kdn(a2-3)Gal(b1-4)GlcNAc = target: Kdn(a2-3)Gal(b1-4)GlcNAc
Summary of the method: as §1

[18] = target: Kdn(a2-3)Gal(b1-4)[Fuc(a1-3)]GlcNAc
Summary of the method: as §1

Kdn(a2-6)Gal(b1-4)GlcNAc = target: Kdn(a2-6)Gal(b1-4)GlcNAc
Summary of the method: as §1

[19] = target: Man(a1-2)Man(a1-2)Man(a1-3)Man
Summary of the method: as §1

[20] = target: Man(a1-2)Man(a1-2)Man(a1-6)[Man(a1-3)]Man
Summary of the method: as §1

Man(a1-2)Man(a1-3)Man = target: Man(a1-2)Man(a1-3)Man
Summary of the method: as §1

[21] = target: Man(a1-2)Man(a1-3)[Man(a1-2)Man(a1-6)]Man
Summary of the method: as §1

[22] = target: Man(a1-2)Man(a1-3)[Man(a1-2)Man(a1-6)]Man(a1-6)[Man(a1-2)Man(a1-2)Man(a1-3)]Man
Summary of the method: as §1

[23] = target: Man(a1-2)Man(a1-3)[Man(a1-2)Man(a1-6)]Man(a1-6)[Man(a1-2)Man(a1-2)Man(a1-3)]Man(b1-4)GlcNAc(b1-4)GlcNAc
Summary of the method: as §1

[24] = target: Man(a1-2)Man(a1-3)[Man(a1-6)]Man(a1-6)[Man(a1-2)Man(a1-3)]Man(b1-4)GlcNAc(b1-4)GlcNAc
Summary of the method: as §1

[25] = target: Man(a1-2)Man(a1-6)[Man(a1-3)]Man(a1-6)[Man(a1-2)Man(a1-2)Man(a1-3)]Man
Summary of the method: as §1

[26] = target: Man(a1-2)Man(a1-6)[Man(a1-3)]Man(a1-6)[Man(a1-2)Man(a1-2)Man(a1-3)]Man(b1-4)GlcNAc(b1-4)GlcNAc
Summary of the method: as §1

Man(a1-3)[Man(a1-6)]Man = target: Man(a1-3)[Man(a1-6)]Man
Summary of the method: as §1

[27] = target: Man(a1-3)[Man(a1-6)]Man(a1-6)[Man(a1-2)Man(a1-3)]Man(b1-4)GlcNAc(b1-4)GlcNAc
Summary of the method: as §1

[28] = target: Man(a1-3)[Man(a1-6)]Man(a1-6)[Man(a1-3)]Man
Summary of the method: as §1

[29] = target: Man(a1-3)[Man(a1-6)]Man(a1-6)[Man(a1-3)]Man(b1-4)GlcNAc(b1-4)GlcNAc
Summary of the method: as §1

[30] = target: Man(a1-3)[Man(a1-6)]Man(b1-4)GlcNAc(b1-4)GlcNAc
Summary of the method: as §1

[31] = target: Man(a1-3)[Man(a1-6)]Man(b1-4)GlcNAc(b1-4)[Fuc(a1-6)]GlcNAc
Summary of the method: as §1

Man(a1-6)Man = target: Man(a1-6)Man
Summary of the method: as §1

Man(b1-4)GlcNAc = target: Man(b1-4)GlcNAc
Summary of the method: as §1

MurNAc(b1-4)GlcNAc = target: MurNAc(b1-4)GlcNAc
Summary of the method: as §1

B1: Drgal1 (Danio rerio) (protein)
chain: MAGVLIQNMSFKVGQTLTITGVPKPDSTNFAINIGHSPEDIALHMNPRFDAHGDQCTIVCNSFQSGSWCEEHRDDNFPFIQDKEFQIKITFTNEEFLVTLPDGSEIHFPNRQGSEKYKYMYFEGEVRIQGVEIK
glycan array binding signal (z-score) [1]: 1.89
glycan array binding signal (z-score) [2]: -0.106
glycan array binding signal (z-score) [3]: 0.021
glycan array binding signal (z-score) [4]: 0.223
glycan array binding signal (z-score) [5]: -0.519
glycan array binding signal (z-score) [6]: -0.558
glycan array binding signal (z-score) [7]: -0.239
glycan array binding signal (z-score) (GlcNAc(b1-3)GalNAc): -0.42
glycan array binding signal (z-score) (GlcNAc(b1-3)Man): -0.309
glycan array binding signal (z-score) [8]: -0.321
glycan array binding signal (z-score) [9]: -0.445
glycan array binding signal (z-score) [10]: -0.32
glycan array binding signal (z-score) [11]: 0.178
glycan array binding signal (z-score) (GlcNAc(b1-4)GlcNAc): 0.013
glycan array binding signal (z-score) [12]: -0.352
glycan array binding signal (z-score) [13]: -0.191
glycan array binding signal (z-score) [14]: -0.903
glycan array binding signal (z-score) [15]: -0.352
glycan array binding signal (z-score) [16]: 0.599
glycan array binding signal (z-score) (GlcNAc(b1-6)GalNAc): -0.014
glycan array binding signal (z-score) [17]: -0.074
glycan array binding signal (z-score) (Kdn(a2-3)Gal(b1-3)GalNAc): -0.094
glycan array binding signal (z-score) (Kdn(a2-3)Gal(b1-3)GlcNAc): 0.176
glycan array binding signal (z-score) (Kdn(a2-3)Gal(b1-4)Glc): -0.466
glycan array binding signal (z-score) (Kdn(a2-3)Gal(b1-4)GlcNAc): -0.245
glycan array binding signal (z-score) [18]: 0.062
glycan array binding signal (z-score) (Kdn(a2-6)Gal(b1-4)GlcNAc): -0.406
glycan array binding signal (z-score) [19]: 0.145
glycan array binding signal (z-score) [20]: -0.589
glycan array binding signal (z-score) (Man(a1-2)Man(a1-3)Man): -0.564
glycan array binding signal (z-score) [21]: -0.092
glycan array binding signal (z-score) [22]: -0.28
glycan array binding signal (z-score) [23]: -0.507
glycan array binding signal (z-score) [24]: -1.37
glycan array binding signal (z-score) [25]: -0.535
glycan array binding signal (z-score) [26]: -0.178
glycan array binding signal (z-score) (Man(a1-3)[Man(a1-6)]Man): 0.311
glycan array binding signal (z-score) [27]: -0.075
glycan array binding signal (z-score) [28]: 0.529
glycan array binding signal (z-score) [29]: -0.199
glycan array binding signal (z-score) [30]: -0.585
glycan array binding signal (z-score) [31]: -0.037
glycan array binding signal (z-score) (Man(a1-6)Man): 1.43
glycan array binding signal (z-score) (Man(b1-4)GlcNAc): 0.616
glycan array binding signal (z-score) (MurNAc(b1-4)GlcNAc): -0.654
